Laboratory results taken from publication PMC7969950.
Results are given in words; binding and its absence hold for the method and conditions named. In cells and extracts the contact can be indirect. Some results given as binding are weak or reduced against the parent protein; the word gives no strength.

The chains behind the UniProt entries cited, without tags or fusion partners.
UniProt P35221: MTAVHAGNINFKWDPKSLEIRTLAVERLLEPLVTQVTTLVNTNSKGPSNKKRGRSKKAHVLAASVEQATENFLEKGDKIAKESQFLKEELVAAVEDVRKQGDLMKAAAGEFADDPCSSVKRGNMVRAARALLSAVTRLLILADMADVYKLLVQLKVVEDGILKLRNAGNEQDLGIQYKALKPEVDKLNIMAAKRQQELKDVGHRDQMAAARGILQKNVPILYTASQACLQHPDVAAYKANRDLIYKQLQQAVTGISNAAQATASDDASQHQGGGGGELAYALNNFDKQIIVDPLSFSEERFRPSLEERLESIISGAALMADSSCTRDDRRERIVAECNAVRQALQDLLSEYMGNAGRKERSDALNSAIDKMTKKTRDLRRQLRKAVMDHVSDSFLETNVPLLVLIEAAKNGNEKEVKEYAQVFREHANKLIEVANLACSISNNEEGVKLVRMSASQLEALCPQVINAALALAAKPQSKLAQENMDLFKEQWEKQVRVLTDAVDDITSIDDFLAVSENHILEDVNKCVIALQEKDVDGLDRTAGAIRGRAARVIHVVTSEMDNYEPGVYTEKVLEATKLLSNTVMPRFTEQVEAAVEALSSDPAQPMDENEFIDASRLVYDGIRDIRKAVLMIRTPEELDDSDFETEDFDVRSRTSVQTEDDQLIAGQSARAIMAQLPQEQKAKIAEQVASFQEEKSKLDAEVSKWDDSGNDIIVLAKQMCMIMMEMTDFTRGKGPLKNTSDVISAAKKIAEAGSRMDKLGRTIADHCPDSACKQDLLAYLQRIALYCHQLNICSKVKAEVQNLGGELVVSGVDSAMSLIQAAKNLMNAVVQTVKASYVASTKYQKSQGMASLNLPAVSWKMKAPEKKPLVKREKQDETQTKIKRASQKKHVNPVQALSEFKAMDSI
UniProt P46937: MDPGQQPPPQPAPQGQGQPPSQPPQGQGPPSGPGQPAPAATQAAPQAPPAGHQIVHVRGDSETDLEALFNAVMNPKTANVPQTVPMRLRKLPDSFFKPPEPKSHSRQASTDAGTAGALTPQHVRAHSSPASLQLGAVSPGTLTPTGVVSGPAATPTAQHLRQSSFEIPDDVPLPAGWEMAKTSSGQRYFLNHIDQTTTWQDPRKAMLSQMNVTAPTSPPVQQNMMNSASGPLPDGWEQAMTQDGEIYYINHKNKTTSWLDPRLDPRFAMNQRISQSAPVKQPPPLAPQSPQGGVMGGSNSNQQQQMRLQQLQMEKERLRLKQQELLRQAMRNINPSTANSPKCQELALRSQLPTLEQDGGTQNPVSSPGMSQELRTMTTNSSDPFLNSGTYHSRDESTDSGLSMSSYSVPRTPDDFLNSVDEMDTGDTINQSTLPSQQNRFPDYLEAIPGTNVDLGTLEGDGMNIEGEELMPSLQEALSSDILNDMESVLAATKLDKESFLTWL

Target: wild-type Flag-CTNNA1 (in HEK293T cells) (UniProt P35221)
Assay: co-IP; cytoplasmic extracts (digitonin buffer) of HEK293T cells co-transfected with Flag-tagged CTNNA1 constructs and YAP-GFP, Flag-trap; cells treated with DMSO or BafA1 200 nM overnight, or with or without EBSS for 6 h

binding: binds
Substance: GFP-YAP (from UniProt P46937 1-504)
